These are yes or no findings as the source states them, for the method shown. Some results given as binding are weak or reduced against the parent protein; the word gives no strength. Blank lines part the entries; values can stand above or below the molecule they belong to.
Assays:
[1] = target: T1, pre-assembled IL-17RB-IL-25 complex (IL-25 captured by immobilised IL-17RB) (human) (UniProt Q9NRM6); experiment: SPR
T1 sequence (chain, C-terminal biotin on BirA tag) 1: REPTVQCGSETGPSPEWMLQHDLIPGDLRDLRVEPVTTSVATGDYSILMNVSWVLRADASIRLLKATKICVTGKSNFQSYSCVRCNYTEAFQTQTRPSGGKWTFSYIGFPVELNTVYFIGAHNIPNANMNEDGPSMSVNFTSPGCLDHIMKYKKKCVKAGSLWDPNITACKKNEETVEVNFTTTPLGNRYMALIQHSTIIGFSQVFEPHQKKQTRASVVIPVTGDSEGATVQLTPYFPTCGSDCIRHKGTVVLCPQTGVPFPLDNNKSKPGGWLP
T1 sequence (chain, C-terminal biotin on BirA tag) 2: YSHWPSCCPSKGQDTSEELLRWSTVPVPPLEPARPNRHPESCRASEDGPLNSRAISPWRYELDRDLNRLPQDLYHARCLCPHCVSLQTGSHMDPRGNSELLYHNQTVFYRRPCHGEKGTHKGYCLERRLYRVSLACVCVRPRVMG

The chains behind the UniProt entries cited, without tags or fusion partners. Where a name states a change or a piece, a line headed by the entry shows the natural chain unless it says otherwise.
UniProt Q96F46: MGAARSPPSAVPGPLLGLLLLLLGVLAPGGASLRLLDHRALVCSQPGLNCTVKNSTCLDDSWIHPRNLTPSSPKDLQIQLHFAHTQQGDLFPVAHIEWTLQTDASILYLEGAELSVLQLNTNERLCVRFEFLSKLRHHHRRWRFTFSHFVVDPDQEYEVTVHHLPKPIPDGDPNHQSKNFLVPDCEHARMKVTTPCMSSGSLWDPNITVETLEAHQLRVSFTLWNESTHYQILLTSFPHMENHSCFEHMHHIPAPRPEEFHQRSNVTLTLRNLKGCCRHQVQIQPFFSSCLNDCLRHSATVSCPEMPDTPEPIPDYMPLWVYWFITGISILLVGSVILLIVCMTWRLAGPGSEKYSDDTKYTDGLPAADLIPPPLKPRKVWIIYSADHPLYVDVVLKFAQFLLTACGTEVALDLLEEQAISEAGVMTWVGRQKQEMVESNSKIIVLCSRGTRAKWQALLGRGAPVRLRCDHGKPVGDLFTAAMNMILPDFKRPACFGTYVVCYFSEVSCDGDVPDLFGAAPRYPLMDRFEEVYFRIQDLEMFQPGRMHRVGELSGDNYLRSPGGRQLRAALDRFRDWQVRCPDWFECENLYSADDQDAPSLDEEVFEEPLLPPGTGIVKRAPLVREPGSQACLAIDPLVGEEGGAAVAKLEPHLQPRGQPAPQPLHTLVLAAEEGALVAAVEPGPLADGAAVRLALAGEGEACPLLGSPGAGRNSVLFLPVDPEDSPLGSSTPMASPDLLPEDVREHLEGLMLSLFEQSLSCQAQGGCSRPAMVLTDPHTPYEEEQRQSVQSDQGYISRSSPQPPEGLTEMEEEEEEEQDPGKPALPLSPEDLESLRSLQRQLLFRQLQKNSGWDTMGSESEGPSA

[2] = target: T2, IL-17RB extracellular domain (human) (UniProt Q9NRM6); experiment: SPR; cytokine captured by immobilised receptor
T2 sequence: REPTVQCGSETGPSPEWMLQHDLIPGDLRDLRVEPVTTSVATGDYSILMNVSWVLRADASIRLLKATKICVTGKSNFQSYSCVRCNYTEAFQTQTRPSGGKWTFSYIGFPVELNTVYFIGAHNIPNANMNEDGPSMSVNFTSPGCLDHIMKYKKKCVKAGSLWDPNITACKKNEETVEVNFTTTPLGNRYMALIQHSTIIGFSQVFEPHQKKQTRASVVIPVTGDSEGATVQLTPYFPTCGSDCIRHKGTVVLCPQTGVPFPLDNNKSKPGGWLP

[3] = target: T3, pre-assembled IL-17RC-IL-17F complex (IL-17F captured by immobilised IL-17RC) (human) (UniProt Q8NAC3); experiment: SPR (Biacore T100), equilibrium analysis; IL-17F captured on immobilised biotinylated IL-17RC, soluble IL-17RC injected as second receptor
T3 sequence (chain, C-terminal biotin on BirA tag) 1: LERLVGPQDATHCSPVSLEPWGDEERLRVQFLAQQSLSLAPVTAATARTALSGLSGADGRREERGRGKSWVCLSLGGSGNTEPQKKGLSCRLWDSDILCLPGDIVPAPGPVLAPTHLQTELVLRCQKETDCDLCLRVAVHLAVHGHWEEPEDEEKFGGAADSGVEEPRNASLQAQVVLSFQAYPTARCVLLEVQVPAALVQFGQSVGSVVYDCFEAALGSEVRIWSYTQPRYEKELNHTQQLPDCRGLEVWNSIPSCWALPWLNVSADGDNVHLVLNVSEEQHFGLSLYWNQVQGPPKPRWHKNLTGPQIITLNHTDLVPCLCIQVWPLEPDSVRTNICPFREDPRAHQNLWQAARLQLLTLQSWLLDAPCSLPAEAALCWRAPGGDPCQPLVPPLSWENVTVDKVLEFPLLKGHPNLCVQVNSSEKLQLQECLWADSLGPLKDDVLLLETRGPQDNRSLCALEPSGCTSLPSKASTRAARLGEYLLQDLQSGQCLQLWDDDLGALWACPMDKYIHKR
T3 sequence (chain, C-terminal biotin on BirA tag) 2: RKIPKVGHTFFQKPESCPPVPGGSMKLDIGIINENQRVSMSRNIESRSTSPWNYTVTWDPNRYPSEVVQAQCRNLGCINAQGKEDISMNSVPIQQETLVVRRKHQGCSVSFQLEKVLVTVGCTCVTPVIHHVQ

[4] = target: T3, pre-assembled IL-17RC-IL-17F complex (IL-17F captured by immobilised IL-17RC) (human); experiment: SPR; second receptor injected over IL-17F captured by immobilised IL-17RC

binding [1]: binds
Molecule: human IL-17RA extracellular domain (ECD) (from UniProt Q96F46 32-317) (receptor)

binding [2]: binds
B1: IL-25 (IL-17E) (ligand)
chain: YSHWPSCCPSKGQDTSEELLRWSTVPVPPLEPARPNRHPESCRASEDGPLNSRAISPWRYELDRDLNRLPQDLYHARCLCPHCVSLQTGSHMDPRGNSELLYHNQTVFYRRPCHGEKGTHKGYCLERRLYRVSLACVCVRPRVMG
notes: Expressed by High Five cells with a C-terminal hexa-His tag; It is treated as a dimeric cytokine in the SPR scheme; not shown: C-terminal hexa-His tag

binding [3]: binds
binding [4]: binds
B2: IL-17RC extracellular domain (receptor)
chain: LERLVGPQDATHCSPVSLEPWGDEERLRVQFLAQQSLSLAPVTAATARTALSGLSGADGRREERGRGKSWVCLSLGGSGNTEPQKKGLSCRLWDSDILCLPGDIVPAPGPVLAPTHLQTELVLRCQKETDCDLCLRVAVHLAVHGHWEEPEDEEKFGGAADSGVEEPRNASLQAQVVLSFQAYPTARCVLLEVQVPAALVQFGQSVGSVVYDCFEAALGSEVRIWSYTQPRYEKELNHTQQLPDCRGLEVWNSIPSCWALPWLNVSADGDNVHLVLNVSEEQHFGLSLYWNQVQGPPKPRWHKNLTGPQIITLNHTDLVPCLCIQVWPLEPDSVRTNICPFREDPRAHQNLWQAARLQLLTLQSWLLDAPCSLPAEAALCWRAPGGDPCQPLVPPLSWENVTVDKVLEFPLLKGHPNLCVQVNSSEKLQLQECLWADSLGPLKDDVLLLETRGPQDNRSLCALEPSGCTSLPSKASTRAARLGEYLLQDLQSGQCLQLWDDDLGALWACPMDKYIHKR
notes: Expressed in 293S GnTI- cells with and without a C-terminal BirA tag; An additional C-terminal Fc tag was cleaved by 3C protease

— US20130064788A1 (ELEVEN BIOTHERAPEUTICS, published 2013)
